No constants are given. Whether binding was seen depends on the method and setting. In cells and extracts the contact can be indirect. Binding can be weak; no strength is given.
Target: telomeric repeat binding factor 2 (TRF2) (human (endogenous in skeletal muscle biopsies and BJ-HELT fibroblasts)) (UniProt Q15554)
Test: proximity ligation

Amino acid sequences for entries named in this document (tags omitted). A change or cut given only in a name is not applied to a line headed by its entry.
UniProt Q15554: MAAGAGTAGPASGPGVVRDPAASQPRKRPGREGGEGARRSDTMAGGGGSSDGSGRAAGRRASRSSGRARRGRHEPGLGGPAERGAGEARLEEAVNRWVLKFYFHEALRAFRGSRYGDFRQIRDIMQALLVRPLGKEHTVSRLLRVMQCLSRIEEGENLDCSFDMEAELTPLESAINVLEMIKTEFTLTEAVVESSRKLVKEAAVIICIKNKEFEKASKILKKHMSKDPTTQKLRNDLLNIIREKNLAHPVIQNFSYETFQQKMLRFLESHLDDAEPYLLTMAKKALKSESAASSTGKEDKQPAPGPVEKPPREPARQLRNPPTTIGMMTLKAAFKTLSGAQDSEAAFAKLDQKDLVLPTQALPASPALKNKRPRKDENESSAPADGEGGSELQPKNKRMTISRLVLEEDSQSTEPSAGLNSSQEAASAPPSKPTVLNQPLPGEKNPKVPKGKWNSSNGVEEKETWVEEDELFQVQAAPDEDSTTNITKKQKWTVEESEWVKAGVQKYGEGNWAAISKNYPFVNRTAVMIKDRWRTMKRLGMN
UniProt O43524: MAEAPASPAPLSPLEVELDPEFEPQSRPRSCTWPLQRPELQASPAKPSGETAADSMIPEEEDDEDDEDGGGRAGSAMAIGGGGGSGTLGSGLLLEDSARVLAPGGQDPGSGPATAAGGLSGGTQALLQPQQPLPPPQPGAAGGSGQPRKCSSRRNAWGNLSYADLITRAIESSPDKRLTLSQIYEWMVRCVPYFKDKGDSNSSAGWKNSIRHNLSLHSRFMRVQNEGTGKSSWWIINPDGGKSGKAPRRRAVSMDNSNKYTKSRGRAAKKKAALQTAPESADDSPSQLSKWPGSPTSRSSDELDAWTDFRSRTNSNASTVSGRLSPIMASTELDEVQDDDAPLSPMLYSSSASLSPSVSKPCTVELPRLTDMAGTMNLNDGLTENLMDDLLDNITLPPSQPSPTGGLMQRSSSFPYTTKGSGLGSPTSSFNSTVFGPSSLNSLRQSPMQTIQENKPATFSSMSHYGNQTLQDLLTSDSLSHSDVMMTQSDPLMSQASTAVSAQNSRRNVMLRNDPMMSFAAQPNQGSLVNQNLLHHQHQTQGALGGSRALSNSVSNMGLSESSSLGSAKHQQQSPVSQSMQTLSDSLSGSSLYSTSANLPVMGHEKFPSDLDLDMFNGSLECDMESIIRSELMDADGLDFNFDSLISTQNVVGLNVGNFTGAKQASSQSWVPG

Substance	binding
FOXO3a ΔCR2C (pWPIR-ΔCR2C-GFP) (from UniProt O43524)	binds
FOXO3a ΔCR3 (pWPIR-ΔCR3-GFP) (from UniProt O43524)	binds

From publication doi:10.1101/2021.08.04.454762
